Assay: Fragrance Fidelity Index (FFI), expert graders, treated fabric swatch against ethyl vanillin reference scale
[1] = Conc 10 ppm test material on clean swatch
[2] = Conc 50 ppm test material on clean swatch

In the case of O=C1CCC2CCCCC2O1 (stereo not drawn) [3,4,4a,5,6,7,8,8a-octahydrochromen-2-one], the FFI [1] is reported as 0 and the FFI [2] is reported as 0.
In the case of CC(C)(C)C1CCCCC1 [4-tert-butyl cyclohexane], the FFI [1] is reported as 0 and the FFI [2] is reported as 0.3.
For CCCCCCCCCCCCO [Material 174], the FFI [2] was 0.5.
Work on CC(=O)OCCCCCCC(C)C [Material 204] yielded an FFI [1] of 0 and an FFI [2] of 0.
Work on CC1(C)CCc2ccc(CCC=O)cc21 [Material 261, 3-(3,3-dimethyl-2,3-dihydro-1H-inden-5-yl)propanal] yielded an FFI (Conc 50 ppm test material on clean swatch, listed as 1H-Indene-5-propanal, 2,3-dihydro-3 ,3-dimethyl-) of 0.5.
For CC1(C)CCc2ccc(CCC=O)cc21 [Material 261], the FFI [2] was 1.3.
Work on CC(=O)OC1CC2CC1C1CC=CC21 (stereo not drawn) [Material 281] yielded an FFI [1] of 0 and an FFI [2] of 0.5.
CCCCCCCCCCCC(=O)OCC [Material 391] gave an FFI [2] of 0.3.
In the case of C=CC(C)=CCC=C(C)C [Material 524], the FFI [2] is reported as 0.
In the case of CCC(O)COC1CCCCC1C(C)(C)C (stereo not drawn) [Material 677], the FFI [1] is reported as 0 and the FFI [2] is reported as 1.8.
CC(CCO)CCc1ccccc1 (stereo not drawn) [Material 962] showed an FFI [1] of 0 and an FFI [2] of 0.5.
With CCOC(=O)OC1C(C)CCC(C)C1C (stereo not drawn) [Material 1005] the FFI [2] was 0.5.
Work on COC(=O)OC1CC/C=C\CCC1 (stereo not drawn) [Material 1139] yielded an FFI [1] of 0 and an FFI [2] of 1.0.
For C=C1CCC2OC2(C)CCC2C1CC2(C)C (stereo not drawn) [Material 1148], the FFI [2] was 0.5.
Work on CC1(C)C2CCC3(C2)C1C(=O)CCC3(C)C (stereo not drawn) [Material 1149] yielded an FFI [1] of 0 and an FFI [2] of 0.8.
Work on CCCCCCCCCCCO [Undecanol] yielded an FFI [2] of 0.8.
